# The inconclusive results got no clear call from the source; some entries with a clear call stand among them for comparison. Where the call is inconclusive, the potency comes from a doubtful curve fit. The source made the active and inactive calls. Unless noted, the call rests on the fitted dose curve.
# By UniProt entry, the sequences of proteins in these tests, tags left out. Where a name states a change or a piece, a line headed by the entry shows the natural chain unless it says otherwise.
# UniProt P28223, whole entry, looked up: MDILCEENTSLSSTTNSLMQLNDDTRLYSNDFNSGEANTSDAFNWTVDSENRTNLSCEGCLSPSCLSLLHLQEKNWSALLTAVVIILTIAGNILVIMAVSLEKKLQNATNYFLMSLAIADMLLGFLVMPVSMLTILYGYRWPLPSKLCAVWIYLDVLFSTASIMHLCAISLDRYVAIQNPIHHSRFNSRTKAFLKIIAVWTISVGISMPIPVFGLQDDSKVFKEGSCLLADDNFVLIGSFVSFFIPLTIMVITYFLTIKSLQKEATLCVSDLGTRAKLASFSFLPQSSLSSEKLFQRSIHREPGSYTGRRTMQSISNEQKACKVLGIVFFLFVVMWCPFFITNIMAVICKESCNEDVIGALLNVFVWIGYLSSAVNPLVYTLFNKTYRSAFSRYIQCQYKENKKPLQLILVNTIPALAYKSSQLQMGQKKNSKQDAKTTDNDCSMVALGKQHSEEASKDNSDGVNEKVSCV
# UniProt P14416, whole entry, looked up: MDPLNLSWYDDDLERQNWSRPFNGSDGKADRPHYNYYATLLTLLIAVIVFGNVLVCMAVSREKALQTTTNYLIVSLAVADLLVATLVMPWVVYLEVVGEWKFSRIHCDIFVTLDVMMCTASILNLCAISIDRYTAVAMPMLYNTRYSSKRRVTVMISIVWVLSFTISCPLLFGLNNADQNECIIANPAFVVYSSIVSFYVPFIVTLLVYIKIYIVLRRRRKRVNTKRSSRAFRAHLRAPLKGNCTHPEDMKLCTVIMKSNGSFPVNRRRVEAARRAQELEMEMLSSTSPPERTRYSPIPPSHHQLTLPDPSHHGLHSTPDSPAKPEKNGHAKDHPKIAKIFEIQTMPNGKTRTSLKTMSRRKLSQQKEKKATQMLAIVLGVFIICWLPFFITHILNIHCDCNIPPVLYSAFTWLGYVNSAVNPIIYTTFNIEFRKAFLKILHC
# UniProt P11229: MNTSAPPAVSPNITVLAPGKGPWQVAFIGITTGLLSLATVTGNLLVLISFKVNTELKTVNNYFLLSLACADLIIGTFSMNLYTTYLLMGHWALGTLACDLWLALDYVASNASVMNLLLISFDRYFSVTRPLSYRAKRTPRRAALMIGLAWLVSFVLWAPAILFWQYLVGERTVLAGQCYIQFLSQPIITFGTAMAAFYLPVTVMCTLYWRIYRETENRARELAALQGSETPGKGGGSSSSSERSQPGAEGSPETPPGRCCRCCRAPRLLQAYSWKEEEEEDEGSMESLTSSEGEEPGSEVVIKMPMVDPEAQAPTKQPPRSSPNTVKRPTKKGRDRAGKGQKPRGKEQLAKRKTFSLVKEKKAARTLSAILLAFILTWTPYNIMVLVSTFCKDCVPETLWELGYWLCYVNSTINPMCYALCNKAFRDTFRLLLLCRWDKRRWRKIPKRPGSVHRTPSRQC
# Legend:
# [1] = p53 small molecule agonists, cell-based qHTS assay: qHTS cell viability counter screen (AID 1963581); details: p53RE-bla HCT-116 viability, ATP luminescence, 16 h; series mostly up to 66 µM; further: nearly all actives have a fitted effect of over 45% in size
# In short: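 Counter screen read by CellTiter-Glo luminescence (ATP content, 30 min at room temperature), run in the same wells as the beta-lactamase reporter read. HCT-116 p53RE-bla cells saw compounds for 16 h at 37 C.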
# [2] = p53 small molecule agonists, cell-based qHTS assay (AID 1963582; active means well fitted activation curve with a large enough effect in the signal ratio in the repeat runs, not every such curve was filed as active; inconclusive means weak or mixed curves; the % refers to the signal ratio; on activation: on the % scale 0 is the no-effect control and ±100 the full control effect); details: HCT-116 p53RE-bla reporter, beta-lactamase FRET ratio, 16 h; activation: at 66 µM (top of the series) unless noted
# In short: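 Read-out is beta-lactamase FRET fluorescence after 2 h at room temperature with LiveBLAzer B/G substrate. p53 response element-bla cells were treated 16 h at 37 C with compounds in DMSO, added 5 h after seeding.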
# [3] = molecular target: 5-hydroxytryptamine receptor 2A (Homo sapiens) (UniProt P28223); assay: 5-hydroxytryptamine receptor 2A (HTR2A) small molecule antagonists, cell-based qHTS assay (AID 1963586); details: HTR2A-CHO cells, DOI-induced calcium flux, fluorescence; series mostly up to 61.5 µM; further: nearly all actives have a fitted effect of over 45% in size
# In short: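 CHO cells stably expressing human HTR2A were plated for 18 h at 37 C, then loaded with calcium dye for 1 h. Compounds were preincubated 5 min at room temperature before DOI (4 nM solution) was added. Kinetic fluorescence was read for 3 min.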
# [4] = molecular target: 5-hydroxytryptamine receptor 2A (Homo sapiens) (UniProt P28223); assay: 5-hydroxytryptamine receptor 2A (HTR2A) small molecule agonists, cell-based qHTS assay (AID 1963587); details: HTR2A-CHO cells, calcium flux fluorescence, agonist mode; series mostly up to 76.8 µM; further: nearly all actives have a fitted effect of over 30% in size; on activation: on the % scale 0 is the no-effect control and ±100 the full control effect
# In short: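 HTR2A-CHO cells, plated 18 h at 37 C/5% CO2, dye-loaded 1 h at 37 C; compounds in DMSO added by pin tool (agonist mode). Intracellular calcium flux read as kinetic fluorescence on FDSS over 2 min at 1 s intervals.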
# [5] = cAMP Responsive Elements (CRE) small molecule agonists, cell-based qHTS assay (AID 1963590); details: CRE-bla HEK293T, beta-lactamase FRET ratio, 3 h; activation: at 92.4 µM (top of the series) unless noted
# In short: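 Agonist mode: compound added to CRE-bla HEK 293T cells (2,000/well, 18 h after plating) for 3 h at 37 C/5% CO2. Reporter activity detected via FRET beta-lactamase substrate, 2 h room-temperature loading.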
# [6] = cAMP Responsive Elements (CRE) small molecule antagonists, cell-based qHTS assay (AID 1963591; active means well fitted inhibition curve with a large enough effect in the signal ratio in the repeat runs, not every such curve was filed as active; inconclusive means weak or mixed curves, or effect the other way; the % refers to the signal ratio; on activity change, negative = inhibition: on the % scale 0 is the no-effect control and ±100 the full control effect); details: CRE-bla HEK293T, beta-lactamase FRET ratio; activity change, negative = inhibition: at 92.4 µM (top of the series) unless noted
# In short: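 Antagonist mode: compounds are added alongside the adenylyl cyclase activator NKH477 (0.25 uM final) to CRE-bla HEK293T cells for 3 h. LiveBLAzer FRET substrate, 2 h at room temperature, reports bla expression.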
# [7] = molecular target: Beta-2 adrenergic receptor (Homo sapiens) (UniProt P07550); assay: Adrenergic beta2 receptor (ADRB2) small molecule agonists, cell-based qHTS assay (AID 1963593); details: CHO-ADRB2 cells, cAMP HTRF, 30 min; activation: at 92.4 µM (top of the series) unless noted;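 on activation: CHO cells stably overexpressing human ADRB2; on the % scale 0 is the no-effect control and ±100 the full control effect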
# In short: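 CHO cells stably over-expressing ADRB2 were plated overnight at 37C, then dosed with compounds plus a stimulation mix containing 100uM IBMX and 25uM Ro-20-1724 for 0.5hr at room temperature. cAMP was measured by HTRF competition, 1hr.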
# [8] = molecular target: D(2) dopamine receptor (Homo sapiens) (UniProt P14416); assay: Dopamine D2 receptor (DRD2) small molecule agonists, cell-based qHTS assay (AID 1963594); details: HEK293-DRD2 cAMP HTRF, agonist mode, 30 min; activation: at 92.4 µM (top of the series) unless noted; further: nearly all actives have a fitted effect of over 35% in size
# In short: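 HEK293 cells stably expressing DRD2 were cultured 24 h at 37 C, then given Ro20-1724 (0.1 mM final) and compounds for 10 min at room temperature. NKH477 (200nM) was then added for 30 min. cAMP was read by HTRF.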
# [9] = molecular target: D(2) dopamine receptor (Homo sapiens) (UniProt P14416); assay: Dopamine D2 receptor (DRD2) small molecule antagonists, cell-based qHTS assay (AID 1963595; active means well fitted inhibition curve with a large enough effect in the signal ratio in the repeat runs, with a control signal flat; inconclusive means weak or mixed curves, or effect the other way; the % refers to the signal ratio); details: HEK293-DRD2 cAMP HTRF antagonist mode; activity change, negative = inhibition: at 92.4 µM (top of the series) unless noted
# In short: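 HEK293 cells stably expressing DRD2, preincubated with 0.1 mM Ro20-1724 and compounds 10 min, were stimulated with 200 nM NKH477 plus 12 nM quinpirole for 30 min at room temperature; cAMP measured by HTRF (665/620 nm).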
# [10] = molecular target: Muscarinic acetylcholine receptor M1 (Homo sapiens) (UniProt P11229); assay: Cholinergic receptor muscarinic 1 (CHRM1) small molecule antagonists, cell-based qHTS assay (AID 1963588); details: CHRM1-CHO antagonist mode, calcium flux fluorescence; series mostly up to 61.5 µM; further: nearly all actives have a fitted effect of over 40% in size
# In short: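 Compounds were tested at 15 concentrations in three independent runs. Dye-loaded CHRM1-CHO cells were exposed 5 min at room temperature before stimulation by acetylcholine added at 50nM. Intracellular calcium was read kinetically on FDSS for 3 min.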
# [11] = molecular target: Beta-2 adrenergic receptor (Homo sapiens) (UniProt P07550); assay: Adrenergic beta2 receptor (ADRB2) small molecule antagonists, cell-based qHTS assay (AID 1963592); details: CHO-ADRB2 cells, isoproterenol-stimulated cAMP HTRF ratio, 0.5 h; activity change, negative = inhibition: at 92.4 µM (top of the series) unless noted; further: nearly all actives have a fitted effect of over 50% in size
# In short: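 Assay format: CHO-ADRB2 cells, 18-20hr seeding at 37C/5% CO2, then compound plus 1nM isoproterenol agonist mix for 0.5hr RT. Homogeneous time-resolved fluorescence cAMP detection after 1hr, expressed as 665/615 nm ratio.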
# Potency means the concentration at half of the fitted maximal effect.
compound,measurement,setting,value
CCO[Si](CCC1CCC2OC2C1)(OCC)OCC (stereo not drawn),Potency,[1],inactive
CN(C)C(C)(C)CO,Potency,[1],inactive
CCCC(=O)OCCC(C)CCC=C(C)C (stereo not drawn),Potency,[1],inactive
O=C1CC2(CCCC2)CC(=O)N1CCNCC1COc2ccccc2O1 (stereo not drawn),Potency,[1],"inconclusive: 25.1 µM [rising, single point]"
same,Potency,[2],"inconclusive: 7.07 µM [falling, partial curve, poor fit]"
same,Potency,[3],"inconclusive: 20.5 µM [inhibitor, single point]"
same,Potency,[4],"inconclusive: 0.19 µM [activator, full curve, poor fit]"
same,Potency,[5],"inconclusive: 33.5 µM [rising, partial curve, poor fit]"
same,"activity change, negative = inhibition",[6],inconclusive: 14.7% [at 42.4 µM]
same,Potency,[7],inactive
same,Potency,[8],"inconclusive: 33.5 µM [falling, partial curve, poor fit]"
same,Potency,[9],active: 0.75 µM
CC=C(Cl)Cl,Potency,[1],"inconclusive: 11.3 µM [rising, partial curve, poor fit]"
same,Potency,[2],inactive
same,Potency,[10],"inconclusive: 18.5 µM [inhibitor, partial curve, poor fit]"
same,Potency,[7],"inconclusive: 1.51 µM [inhibitor, full curve, poor fit]"
O=C(O)CCC(=O)c1ccc(-c2ccccc2)cc1,Potency,[1],inactive
same,Potency,[2],inactive
same,Potency,[5],"inconclusive: 13.3 µM [rising, partial curve]"
same,Potency,[6],inconclusive: 11.9 µM [fluorescent]
same,activation,[7],inconclusive: 7.21% [at 42.5 µM]
CC1=C(/C=C/C(C)=C/C=C/C(C)=C\C(=O)O)C(C)(C)CCC1,Potency,[1],"inconclusive: 51.5 µM [cytotoxic, single point]"
same,Potency,[2],"inconclusive: 51.5 µM [activator, single point]"
same,Potency,[5],inconclusive: 61.3 µM
same,Potency,[6],inactive
same,Potency,[7],"inconclusive: 6.13 µM [inhibitor, single point]"
CC(C)=CCC1=C(O)c2ccccc2C(=O)C1=O,Potency,[1],active: 3.61 µM
same,Potency,[2],active: 4.06 µM
same,Potency,[4],inactive
same,Potency,[5],inconclusive: 54.2 µM
same,Potency,[6],inactive
same,Potency,[11],inconclusive: 68.2 µM
same,Potency,[7],inactive
same,"activity change, negative = inhibition",[9],inconclusive: -2.29%
CCC(N)(CO)CO,Potency,[1],inactive
same,Potency,[2],inactive
same,Potency,[4],inactive
same,Potency,[7],inactive
CN1CCCC(n2nc(Cc3ccc(Cl)cc3)c3ccccc3c2=O)CC1 (stereo not drawn),Potency,[1],"inconclusive: 22.3 µM [rising, single point]"
same,Potency,[2],inactive
same,Potency,[5],"inconclusive: 26.6 µM [rising, partial curve]"
same,Potency,[6],"inconclusive: 21.1 µM [fluorescent, partial curve, poor fit]"
same,Potency,[7],inconclusive: 29.8 µM [inhibitor]
same,Potency,[9],"inconclusive: 26.6 µM [inhibitor, partial curve]"
O=C1CCc2ccc(OCCCCN3CCN(c4cccc(Cl)c4Cl)CC3)cc2N1,Potency,[1],"inconclusive: 25.1 µM [cytotoxic, single point]"
same,Potency,[2],"inconclusive: 6.3 µM [rising, partial curve, poor fit]"
same,Potency,[5],"inconclusive: 33.5 µM [rising, single point]"
CN1CCN(c2c(F)cc3c(=O)c(C(=O)O)cn4c3c2SCC4)CC1,Potency,[1],"inconclusive: 0.793 µM [rising, single point]"
same,Potency,[2],"inconclusive: 22.3 µM [rising, single point]"
same,Potency,[5],"inconclusive: 29.8 µM [rising, partial curve]"
same,"activity change, negative = inhibition",[6],inconclusive: 1.41% [at 42.4 µM]
same,Potency,[7],inactive
same,activation,[8],inconclusive: 19.1% [at 42.5 µM]
CC(C)C(O)C(C)(C)CO (stereo not drawn),Potency,[1],active: 3.75 µM
same,Potency,[2],inactive
same,Potency,[10],active: 0.487 µM
same,Potency,[5],inactive
same,Potency,[6],active: 56.2 µM
same,Potency,[7],"inconclusive: 1.41 µM [inhibitor, full curve, poor fit]"
O=C(Nc1ccccc1)c1cc([N+](=O)[O-])ccc1Cl,Potency,[1],"inconclusive: 32.4 µM [rising, partial curve]"
same,activation,[2],inconclusive: 17.5%
same,Potency,[5],"inconclusive: 48.6 µM [rising, partial curve]"
same,Potency,[6],"inconclusive: 48.6 µM [fluorescent, partial curve]"
same,Potency,[7],inactive
C[Si](NC1CCCCC1)(NC1CCCCC1)NC1CCCCC1,Potency,[1],inactive
same,Potency,[2],"inconclusive: 51.3 µM [rising, single point]"
same,Potency,[5],inconclusive: 68.6 µM
same,"activity change, negative = inhibition",[6],inconclusive: 10.3%

# Already shown: an excerpt of the list.
compound,measurement,setting,value
CC(C)C(O)C(C)(C)CO (stereo not drawn),Potency,[6],active: 56.2 µM
same,Potency,[7],"inconclusive: 1.41 µM [inhibitor, full curve, poor fit]"

# Reference: PubChem BioAssay (Tox21)
